This is one part of the list. These are further read-outs of the screen, such as a control signal, another cell line or another target. No call is given for them. The list favours compounds with an active or inconclusive main result. Words in brackets tell the shape of the fitted curve; partial curves, single points and poor fits give uncertain potencies.
Test: Cell signaling CRE-BLA (Fsk stim)
Conditions: CHO CRE-bla reporter (cAMP response element driving beta-lactamase), forskolin EC10, beta-lactamase ratio; measured here: 460 nm blue channel
Summary of the method: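 Titrated compounds plus EC10 NKH 477 on CHO CRE-bla cells, 3 h, 37 °C. CCF4, 2 h RT. Ratio 460/530 nm → AC50.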

Row | SMILES | AC50
1 | CCOC(=O)C1CCN(c2ncnc3c2oc2ccc(Br)cc23)CC1 | 10 µM [rising, partial curve]
2 | COc1ccc(Cl)cc1C(=O)N(Cc1nc(-c2cccc(C)c2)no1)C(C)C | 12.6 µM [falling, single point]
3 | Cc1ccc(-n2ncc(C(=O)NCc3ccc4c(c3)OCO4)c2NC(=O)c2ccco2)cc1C | 20 µM [falling, partial curve]
4 | CCCCNc1nc(C)nc2c1nc(-c1ccccc1)n2C1CCN(Cc2ccccc2)C1 (centres undefined) | 5.01 µM [rising, single point]
5 | Oc1ccc(C=NCC2COc3ccccc3O2)cc1 (centres undefined) | 0.316 µM [falling, full curve]
6 | CN(C)c1ccc(CN2CCCC(O)C2)cc1 (centres undefined) | 0.00316 µM [falling, full curve, poor fit]
7 | CC(C)NC(=O)NC(=O)COC(=O)Cc1ccsc1 | 3.98 µM [falling, partial curve]
8 | CN(C)c1ncc2ncc(=O)n(C)c2n1 | 12.6 µM [rising, partial curve]
9 | NC(=O)c1cc(-c2ccccc2)nc(N2CCOCC2)n1 | 3.98 µM [falling, full curve]
10 | CCOC(=O)CNC(=O)C(=O)c1c(O)[nH]c2ccccc12 | 25.1 µM [falling, single point]
11 | CN(C)c1ncc2nc(-c3ccccc3)c(=O)n(CCc3ccccc3)c2n1 | 0.501 µM [rising, full curve]
12 | O=[n+]1cc(-c2cc3ccccc3o2)n([O-])c2c1CCCC2 | 0.794 µM [falling, full curve]
13 | CCc1nc(NCC2CCCO2)c2oc3ccccc3c2n1 (centres undefined) | 12.6 µM [rising, partial curve]
14 | COC(=O)[C@@]1(Cc2ccc(F)cc2)[C@H]2c3cc(C(=O)N4CCCC4)n(Cc4ccc(Cl)c(C(F)(F)F)c4)c3C[C@H]2CN1C(=O)c1ccccc1 | 1.58 µM [rising, partial curve]
15 | COc1cc(-c2nnc(COc3ccc4cc(Br)ccc4c3)o2)cc(OC)c1OC | 3.16 µM [rising, partial curve]
16 | CCCn1c(NCc2ccc(C)o2)nc2ccccc21 | 5.01 µM [falling, single point]
17 | O=S(=O)(CCN1CCN(C(c2ccccc2)c2ccccc2)CC1)C(F)(F)F | 3.16 µM [falling, single point]
18 | Cc1cc(NC(=O)NC(=O)c2ccc(F)cc2F)n[nH]1 | 0.00631 µM [falling, full curve, poor fit]
19 | CCCCN(CC)CCNC(=O)c1cc2c(C)nc3ccccc3c2o1 | 20 µM [rising, single point]
20 | CC(=O)NC(O)C(=O)c1ccco1 (centres undefined) | 25.1 µM [rising, single point]
21 | CCCn1c(=O)c2ccccc2n2c(SCCOc3ccccc3F)nnc12 | 12.6 µM [rising, partial curve]
22 | CCOC(=O)c1oc2ccccc2c1CSc1nnc(-c2ccco2)o1 | 12.6 µM [rising, partial curve]

Four entries drawn at random from the list so far:
Row | SMILES | AC50
20 | CC(=O)NC(O)C(=O)c1ccco1 (centres undefined) | 25.1 µM [rising, single point]
5 | Oc1ccc(C=NCC2COc3ccccc3O2)cc1 (centres undefined) | 0.316 µM [falling, full curve]
18 | Cc1cc(NC(=O)NC(=O)c2ccc(F)cc2F)n[nH]1 | 0.00631 µM [falling, full curve, poor fit]
3 | Cc1ccc(-n2ncc(C(=O)NCc3ccc4c(c3)OCO4)c2NC(=O)c2ccco2)cc1C | 20 µM [falling, partial curve]

Next part.

Row | SMILES | AC50
23 | COCCNc1nc(-c2ccoc2)nc2ccccc12 | 15.8 µM [rising, partial curve]
24 | CCOC(=O)c1ccccc1Nc1cc(C)nc2nc(C)nn12 | 5.01 µM [rising, partial curve]
25 | CC(=O)Nc1ccc(C(=O)Nc2ccc3c(c2)OCO3)cc1 | 0.501 µM [falling, partial curve, poor fit]
26 | CCN1CCN(CCCNC(=O)c2cn(CCOC)c(=O)c3c2c2ccccc2n3C)CC1 | 0.0316 µM [falling, partial curve]
27 | O=C(CCN1C(=O)C2C3C=CC(C3)C2C1=O)N1CCN(c2ccc(F)cc2)CC1 (centres undefined) | 1.26 µM [falling, partial curve]
28 | O=C(Nc1ccccc1Cl)c1cnccn1 | 5.01 µM [rising, single point]
29 | COc1ccc(NC(=O)COc2nc(N(C)C)nc(N(C)C)n2)cc1 | 12.6 µM [rising, single point]
30 | C=CCSc1nc2c(c(=O)[nH]c(=O)n2C)n1C(C)C | 10 µM [rising, partial curve]
31 | CCC(C)[C@@H](C(=O)Nc1ccc(OC)c(OC)c1)N1Cc2ccccc2C1=O (some centres undefined) | 3.98 µM [rising, full curve]
32 | CSc1nc2ccc(NS(=O)(=O)c3ccc(Cl)s3)cc2s1 | 6.31 µM [rising, partial curve]
33 | COc1ccc(-c2nnc(SCC(=O)Nc3ncc(C)s3)n2-c2ccccc2)cc1OC | 6.31 µM [rising, partial curve]
34 | COc1ccc(CC(=O)N2CCN(c3ccccn3)CC2)cc1 | 5.01 µM [falling, partial curve]
35 | CCc1ccccc1NS(=O)(=O)c1cc(C)ccc1OC | 12.6 µM [rising, partial curve]
36 | Cn1nc(-c2ccc(N3CCCCC3)c(NC(=O)c3ccco3)c2)c2ccccc2c1=O | 1.58 µM [rising, full curve]
37 | CCOC(=O)N1CCC(NC(=O)CSc2cc(=O)n(CC)c3ccccc23)CC1 | 3.98 µM [rising, single point]
38 | Cc1cccc(-n2c(=O)[nH]c3c(C(N)=O)nc(C(C)C)nc32)c1 | 10 µM [rising, partial curve]
39 | COc1ccc(NC(=O)c2ocnc2C)cc1OC | 25.1 µM [rising, single point]
40 | N#CCCn1c(=O)c(-c2cccc(C#N)c2)nc2cnc(Oc3cccc(Cl)c3)nc21 | 15.8 µM [rising, single point]
41 | Cc1ccc(NC(=O)CC2SCCNC2=O)cc1Cl (centres undefined) | 25.1 µM [rising, single point]
42 | Oc1c(C(c2cccc(F)c2)N2CCN(Cc3ccccc3)CC2)sc2ncnn12 (centres undefined) | 6.31 µM [falling, partial curve]
43 | COc1ccc2nc(SCc3nc(N)nc(Nc4ccccc4)n3)[nH]c2c1 | 1.58 µM [rising, partial curve]
44 | COc1ccc(CCN(Cc2cc3cccc(C)c3[nH]c2=O)C(=O)N2CCCC2)cc1OC | 12.6 µM [rising, partial curve]
